Measurements as given in publication PMC3979655.
No constants are given. Whether binding was seen depends on the method and setting. In cells and extracts the contact can be indirect. Binding calls can cover weak binding; strength is not graded here.

Protein sequences, listed by entry. Tags and fused reporters are not part of them.
UniProt P35631: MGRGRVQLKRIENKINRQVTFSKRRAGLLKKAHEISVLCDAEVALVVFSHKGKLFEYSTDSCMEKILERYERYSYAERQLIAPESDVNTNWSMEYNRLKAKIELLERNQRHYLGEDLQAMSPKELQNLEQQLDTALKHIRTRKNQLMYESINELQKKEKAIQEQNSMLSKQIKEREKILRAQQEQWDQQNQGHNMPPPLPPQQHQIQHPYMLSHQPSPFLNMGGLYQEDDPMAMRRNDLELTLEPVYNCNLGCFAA
UniProt O22456: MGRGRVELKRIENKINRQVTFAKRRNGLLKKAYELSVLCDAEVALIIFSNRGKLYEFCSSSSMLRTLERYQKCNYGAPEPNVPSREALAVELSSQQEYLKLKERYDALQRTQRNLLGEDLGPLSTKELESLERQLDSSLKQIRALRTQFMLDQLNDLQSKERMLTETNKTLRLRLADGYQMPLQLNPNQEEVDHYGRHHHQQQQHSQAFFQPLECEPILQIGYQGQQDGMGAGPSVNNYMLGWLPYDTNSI
UniProt O64645: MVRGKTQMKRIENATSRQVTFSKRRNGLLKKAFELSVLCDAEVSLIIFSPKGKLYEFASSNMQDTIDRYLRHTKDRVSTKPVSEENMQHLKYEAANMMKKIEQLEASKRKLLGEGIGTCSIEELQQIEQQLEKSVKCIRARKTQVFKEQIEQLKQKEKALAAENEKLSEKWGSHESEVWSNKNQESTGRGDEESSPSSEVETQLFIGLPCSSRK

Molecular target: GFP-tagged SAP54 transiently expressed in N. benthamiana (Aster Yellows phytoplasma strain Witches' Broom (AY-WB)) (UniProt Q2NJQ2)
Experiment: co-IP; GFP-Trap immunoprecipitation from N. benthamiana leaves transiently co-expressing GFP-tagged SAP54 or GFP and 10xmyc-tagged MTFs, in the presence or absence of 50 µM epoxomicin; 4°C overnight; blot with anti-myc

Substance	binding
10xmyc-tagged AP1 (35S:10xmyc–MTF, pGWB21) (from UniProt P35631 1-256)	binds
10xmyc-tagged SEP3 (35S:10xmyc–MTF, pGWB21) (from UniProt O22456 1-251)	binds
10xmyc-tagged SOC1 (35S:10xmyc–MTF, pGWB21) (from UniProt O64645 1-214)	binds
